Data: PubChem BioAssay (NCATS)
This list was built around the results that the source calls inconclusive (neither active nor inactive); the mix of calls is not that of the screen. For some assays here: Potencies of inconclusive entries are doubtful fits and often do not repeat. Active and inactive are the calls of the source. Unless noted, calls follow the shape of the dose curve; as a rule, active = well fitted curve in the direction sought with a large enough effect; inconclusive = small, poorly fitted or top-dose-only effect, or another doubt; inactive = no such curve, though single readings can be large; an effect the other way counts as inactive or inconclusive.

What was measured:
[1] = Cytotoxicity counterscreen for NFkB agonists and antagonists (AID 624476)
[2] = qHTS of pediatric cancer cell lines to identify multiple opportunities for drug repurposing: Primary screen for TC32 cells (AID 1347089); also: nearly all actives have a fitted effect of over 60% in size
How it was run: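 Luminescent CellTiter-Glo read-out of metabolically active TC32 cells after 48 h compound exposure. Primary: MIPE 11-point, 0.78 nM–46 µM; NPC 8-point, 0.59 nM–46 µM. Confirmatory: 11-point dilutions.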

[3] = qHTS of pediatric cancer cell lines to identify multiple opportunities for drug repurposing: Primary screen for SJ-GBM2 cells (AID 1347091)
How it was run: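 Eight- or eleven-point concentration series, 48 h treatment at 37 degrees C in growth media; readout CellTiter-Glo luminescence. Potency and efficacy were taken from the concentration-response curves.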

[4] = qHTS of pediatric cancer cell lines to identify multiple opportunities for drug repurposing: Primary screen for NB-EBc1 cells (AID 1347095)
How it was run: (§1)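 Quantitative HTS format: each compound titrated (MIPE 11 points from 0.78 nM, NPC 8 points from 0.59 nM) onto cells plated 5 hours earlier. After 48 h at 37 degrees C, CellTiter-Glo luminescence was recorded.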

[5] = qHTS of pediatric cancer cell lines to identify multiple opportunities for drug repurposing: Primary screen for NB1643 cells (AID 1347099); also: nearly all actives have a fitted effect of over 50% in size
How it was run: as §1

[6] = qHTS of pediatric cancer cell lines to identify multiple opportunities for drug repurposing: Primary screen for MG 63 (6-TG R) cells (AID 1347105); conditions: MG 63 (6-TG R) viability, CellTiter-Glo, 48 h; activity change, negative = cytotoxic: at 46 µM (top of the series) unless noted; also: nearly all actives have a fitted effect of over 50% in size
How it was run: as §1

[7] = qHTS of pediatric cancer cell lines to identify multiple opportunities for drug repurposing: Primary screen for control Hh wild type fibroblast cells (AID 1347106); also: nearly all actives have a fitted effect of over 55% in size
How it was run: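 Cells (500-1,000/well) in growth media were settled 5 h at 37 degrees C, then given compounds for 48 h. Viability was read as CellTiter-Glo luminescence. Primary runs used MIPE at 11 points (0.78 nM-46 µM) and NPC at 8 points (0.59 nM-46 µM); follow-ups used 11 points.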

[8] = Quantitative High-Throughput drug screen in 47 multiple myeloma cell lines against the NCATS MIPE library collection: OCIMY7_PLB cell viability assay (AID 1918987); conditions: OCI-MY7 myeloma viability, CellTiter-Glo ATP, 48 h; viability (% of DMSO): at 45.8 µM (top of the series); also: nearly all actives have a fitted effect of over 65% in size
How it was run: (§2)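 Readout: median RLU from CellTiter-Glo after 5 min at room temperature. Preceding step was 48 h drug treatment of 500 cells/well at 37 °C, 5% CO2, with DMSO-only and media-only control wells.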

[9] = Quantitative High-Throughput drug screen in 47 multiple myeloma cell lines against the NCATS MIPE library collection: OPM2_DSMZ cell viability assay (AID 1919872); also: nearly all actives have a fitted effect of over 30% in size
How it was run: (§3)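 Luminescent ATP measurement with CellTiter-Glo gives viability, scaled between DMSO-only wells (100%) and media-only wells (0%). Cells, 500 per well, faced library compounds for 48 hours at 37C.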

[10] = qHTS for identification of novel therapeutic agents for treatment of microphthalmiaassociated transcription factor (MiT) renal cell carcinoma (RCC) (AID 1963991; calls by dose curve); conditions: TFE3-RCC UOK109 viability, CellTiter-Glo, 48 h; active = Z-AUC below -0.8 in all three lines
How it was run: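 UOK109/UOK124/UOK145 (TFE3 fusions, three partners); 500 cells/well; MIPE v4.0, 1912 cpds, 11 conc.; 48 h, 37 C; CellTiter-Glo, 15 min RT; lum. Norm.: DMSO 100%, empty 0%.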

[11] = test system: MCC-26; experiment: qHTS assay to identify novel small-molecules to repurpose for Merkel cell carcinoma treatment (AID 1296009); conditions: MCC and control cell lines, CellTiter-Glo viability, 72 h; series mostly up to 46 µM; also: nearly all actives have a fitted effect of over 60% in size
How it was run: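 Luminescence from CellTiter-Glo, read 10 min after addition at room temperature, reported viability following a 72 hr, 37 degree celsius treatment with NPC or MIPE compounds in titration; values normalized to plate controls.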

[12] = qHTS Assay for Identification of Small Molecule Antagonists for NFkB Signaling Pathway. (AID 624479; calls by dose curve;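 also: pathway stimulated with TNF alpha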)
[13] = qHTS of pediatric cancer cell lines to identify multiple opportunities for drug repurposing: Primary screen for Saos-2 cells (AID 1347097); conditions: Saos-2 viability, CellTiter-Glo ATP luminescence, 48 h; activity change, negative = cytotoxic: at 46 µM (top of the series); also: nearly all actives have a fitted effect of over 40% in size
How it was run: as §1

[14] = Primary qHTS for inhibitors of nuclear receptor binding SET domain protein 2 (NSD2) in an isogenic RCH-ACV NSD2 p.E1099K mutant (9B) (AID 1645876); also: nearly all actives have a fitted effect of over 70% in size
[15] = Quantitative High-Throughput drug screen in 47 multiple myeloma cell lines against the NCATS MIPE library collection: KMS27_JCRB cell viability assay (AID 1918970); conditions: KMS27 myeloma cells, CellTiter-Glo ATP viability, 48 h; viability (% of DMSO): at 45.8 µM (top of the series); also: nearly all actives have a fitted effect of over 30% in size
How it was run: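 Myeloma cells (500 per well) were exposed to MIPE 4.0 compounds for 48 h at 37 °C, 5% CO2; viability was read as ATP luminescence with CellTiter-Glo, normalized to DMSO-only (100%) and media-only (0%) wells.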

[16] = Quantitative High-Throughput drug screen in 47 multiple myeloma cell lines against the NCATS MIPE library collection: KMS28BM_JCRB cell viability assay (AID 1919874); also: nearly all actives have a fitted effect of over 35% in size
How it was run: as §2

[17] = qHTS of pediatric cancer cell lines to identify multiple opportunities for drug repurposing: Primary screen for SK-N-SH cells (AID 1347098); conditions: SK-N-SH viability, CellTiter-Glo luminescence, 48 h; activity change, negative = cytotoxic: at 57 µM (top of the series); also: nearly all actives have a fitted effect of over 65% in size
How it was run: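 Cells (500-1,000/well) rested 5 h, then received compounds for 48 h; metabolically active cells were measured by CellTiter-Glo luminescence. Final concentrations spanned up to 46 µM (MIPE, 11-point) or 0.59 nM-46 µM (NPC, 8-point) in primary screens, 11-point in follow-ups.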

[18] = qHTS to identify inhibitors of the type 1 interferon - major histocompatibility complex class I in skeletal muscle: primary screen against the NCATS Mechanism Interrogation Plate v5.0 (MIPE) Libary (AID 1347411); conditions: iHSKM cells + IFN-b, HiBiT-tagged MHC-I luminescence, 24 h; series mostly up to 45.8 µM; also: nearly all actives have a fitted effect of over 65% in size
How it was run: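 IFN-beta-driven (4 ng/ml) HLA-B-HiBit expression in CRISPR-tagged C25cl48 myoblasts; compounds 11-pt, 1:3, max 46 uM, 24 hr exposure; lytic NanoLuc complementation luminescence.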

[19] = Quantitative High-Throughput drug screen in 47 multiple myeloma cell lines against the NCATS MIPE library collection: MMM1_PLB cell viability assay (AID 1918976); also: nearly all actives have a fitted effect of over 35% in size
How it was run: as §2

[20] = Quantitative High-Throughput drug screen in 47 multiple myeloma cell lines against the NCATS MIPE library collection: H1112_PLB cell viability assay (AID 1918967; also: nearly all actives have a fitted effect of over 30% in size)
How it was run: as §3

Measured: Potency
Potency is read from the fitted curve at half-maximal effect.

COc1cc2nccc(Oc3ccc(NC(=O)C4(C(=O)Nc5ccc(F)cc5)CC4)cc3)c2cc1OC
inconclusive: [1] 29.6 µM [inhibitor, single point] | [2] 33 µM [cytotoxic, single point] | [6] 23.5 µM [cytotoxic, partial curve, poor fit] | [7] 0.833 µM [cytotoxic, full curve, poor fit] | [10] 2.96 µM [falling, full curve] | [11] 16.6 µM [inhibitor, partial curve]
active: [3] 0.0235 µM | [4] 0.743 µM | [5] 9.35 µM | [8] 18.7 µM | [9] 23.5 µM

CN(C)CCCN=c1c2ccccc2n(C)c2[nH]c(=O)n(C)c(=O)c12
active: [14] 13.2 µM | [16] 16.6 µM
inactive: [13]
inconclusive: [1] 29.6 µM [inhibitor, single point] | [12] 29.8 µM [inhibitor, single point] | [2] 29.4 µM [cytotoxic, single point] | [7] 26.4 µM [cytotoxic, single point] | [15] 11.8 µM [cytotoxic, single point] | [8] 0.0017 µM [rising, full curve, poor fit] | [11] 20.9 µM [inhibitor, single point]

CNC(=O)c1cc(Oc2ccc(NC(=O)Nc3cc(C(C)(C)C)nn3-c3ccc4ncccc4c3)c(F)c2)ccn1
inconclusive: [6] 1.87 µM [cytotoxic, full curve] | [7] 1.87 µM [cytotoxic, partial curve] | [11] 18.7 µM [inhibitor, partial curve]
active: [4] 2.35 µM | [17] 19.2 µM | [5] 4.69 µM | [18] 8.29 µM | [19] 14.8 µM

COc1cc(=C2C=c3ccccc3=N2)[nH]c1=Cc1[nH]c(C)cc1C
inconclusive: [1] 23.5 µM [inhibitor, single point] | [11] 33.2 µM [inhibitor, single point]
inactive: [2]
active: [4] 0.743 µM | [17] 19.2 µM | [5] 14.8 µM | [6] 11.8 µM | [7] 10.5 µM | [20] 5.9 µM | [19] 2.09 µM | [8] 1.48 µM | [10] 8.33 µM

Cn1cncc1[C@@](N)(c1ccc(Cl)cc1)c1ccc2c(c1)c(-c1cccc(Cl)c1)cc(=O)n2C
inconclusive: [2] 1.65 µM [cytotoxic, full curve] | [7] 1.87 µM [cytotoxic, full curve, poor fit] | [18] 18.6 µM [inhibitor, partial curve, poor fit] | [20] 7.43 µM [cytotoxic, partial curve] | [10] 13.2 µM [falling, partial curve]
active: [13] 18.7 µM | [5] 18.7 µM | [15] 7.43 µM | [9] 11.8 µM

C[C@]12CCC(=O)C=C1CC[C@@H]1[C@@H]2[C@@H](O)C[C@@]2(C)[C@H]1CC[C@]2(O)C(=O)CO
inactive: [4] | [13]
inconclusive: [14] 23.7 µM [inhibitor, partial curve, poor fit]

Cc1c(CN2CCN(C(=O)C(C)C)CC2)sc2c(N3CCOCC3)nc(-c3cnc(N)nc3)nc12
inconclusive: [7] 0.148 µM [cytotoxic, full curve] | [20] 2.35 µM [cytotoxic, partial curve]
inactive: [12]
active: [3] 0.132 µM | [13] 0.332 µM | [17] 0.961 µM | [5] 6.62 µM | [6] 0.118 µM | [8] 1.66 µM | [16] 0.0372 µM | [10] 0.118 µM | [11] 0.662 µM
